Our source for the binding values is doi:10.1101/2025.01.07.631699.

Amino acid sequences for entries named in this document (tags omitted).
UniProt P48727: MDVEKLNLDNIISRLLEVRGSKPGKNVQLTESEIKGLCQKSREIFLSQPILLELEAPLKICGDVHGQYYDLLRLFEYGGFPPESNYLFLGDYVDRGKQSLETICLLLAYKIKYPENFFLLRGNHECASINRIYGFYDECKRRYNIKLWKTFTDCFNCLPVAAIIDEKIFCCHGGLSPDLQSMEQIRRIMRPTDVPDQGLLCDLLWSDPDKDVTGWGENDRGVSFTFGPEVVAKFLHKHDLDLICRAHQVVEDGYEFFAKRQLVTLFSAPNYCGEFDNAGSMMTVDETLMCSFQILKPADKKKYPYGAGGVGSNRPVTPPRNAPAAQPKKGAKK
UniProt Q27497: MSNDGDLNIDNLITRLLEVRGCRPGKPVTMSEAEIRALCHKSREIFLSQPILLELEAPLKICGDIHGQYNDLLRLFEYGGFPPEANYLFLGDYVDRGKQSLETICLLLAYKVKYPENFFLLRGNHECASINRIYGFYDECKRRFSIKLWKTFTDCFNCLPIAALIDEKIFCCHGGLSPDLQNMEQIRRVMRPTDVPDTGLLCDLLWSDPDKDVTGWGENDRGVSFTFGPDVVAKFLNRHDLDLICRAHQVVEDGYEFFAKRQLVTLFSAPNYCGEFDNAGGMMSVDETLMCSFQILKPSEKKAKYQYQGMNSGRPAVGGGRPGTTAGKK

Changes are numbered by the printed parent chain. Results are given in words; binding and its absence hold for the method and conditions named. Some entries that bind do so weakly or less than the wild type. Where a sequence is shown, tags or fusion partners need not be part of it.

The target of assay [1] is T1, Full-length SDS-22 (1-326) wild type fused to the GAL4 DNA binding domain (C. elegans) (UniProt P45969).
T1 sequence: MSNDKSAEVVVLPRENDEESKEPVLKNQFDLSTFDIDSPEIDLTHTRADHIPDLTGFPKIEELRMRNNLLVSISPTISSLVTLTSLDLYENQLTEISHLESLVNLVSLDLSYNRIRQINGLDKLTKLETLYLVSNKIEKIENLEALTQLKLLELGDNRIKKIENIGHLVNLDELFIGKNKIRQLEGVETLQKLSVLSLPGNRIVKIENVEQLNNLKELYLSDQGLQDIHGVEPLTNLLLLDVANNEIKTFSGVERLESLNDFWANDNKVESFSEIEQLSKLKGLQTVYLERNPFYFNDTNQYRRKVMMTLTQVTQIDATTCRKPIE
Briefly: two-hybrid; GAL4-based yeast two-hybrid (Gateway) in MAV203 yeast; SDS-22 fused to the DNA binding domain (bait), GSP-1 and GSP-2 fused to the activation domain (prey); growth on medium lacking leucine, tryptophan and histidine with 7.5 mM 3-AT.

In assay [2] the target is T2, Full-length SDS-22 (1-326) E153A mutant fused to the GAL4 DNA binding domain (C. elegans) (UniProt P45969).
T2 sequence: T1 sequence with E153A
The assay is described as above.

On to “GSP-2 (full-length cDNA) fused to the GAL4 activation domain (from UniProt P48727 1-333) (enzyme)”, for which the results for the binding result in assay [1] and in assay [2] were “binds” and “no binding”, respectively.
Taken in the same sequence, the figures for “GSP-1 (full-length cDNA) fused to the GAL4 activation domain (from UniProt Q27497 1-329) (enzyme)” were “binds” and “no binding”.
